# Reference: PubChem BioAssay AID1671190 (National Center for Advancing Translational Sciences (NCATS), 2021)
# Chains of the proteins cited; added tags and fusions are not shown. Lines headed by an entry give the natural chain unless they say otherwise; changes in a name come on top.
# UniProt P18054: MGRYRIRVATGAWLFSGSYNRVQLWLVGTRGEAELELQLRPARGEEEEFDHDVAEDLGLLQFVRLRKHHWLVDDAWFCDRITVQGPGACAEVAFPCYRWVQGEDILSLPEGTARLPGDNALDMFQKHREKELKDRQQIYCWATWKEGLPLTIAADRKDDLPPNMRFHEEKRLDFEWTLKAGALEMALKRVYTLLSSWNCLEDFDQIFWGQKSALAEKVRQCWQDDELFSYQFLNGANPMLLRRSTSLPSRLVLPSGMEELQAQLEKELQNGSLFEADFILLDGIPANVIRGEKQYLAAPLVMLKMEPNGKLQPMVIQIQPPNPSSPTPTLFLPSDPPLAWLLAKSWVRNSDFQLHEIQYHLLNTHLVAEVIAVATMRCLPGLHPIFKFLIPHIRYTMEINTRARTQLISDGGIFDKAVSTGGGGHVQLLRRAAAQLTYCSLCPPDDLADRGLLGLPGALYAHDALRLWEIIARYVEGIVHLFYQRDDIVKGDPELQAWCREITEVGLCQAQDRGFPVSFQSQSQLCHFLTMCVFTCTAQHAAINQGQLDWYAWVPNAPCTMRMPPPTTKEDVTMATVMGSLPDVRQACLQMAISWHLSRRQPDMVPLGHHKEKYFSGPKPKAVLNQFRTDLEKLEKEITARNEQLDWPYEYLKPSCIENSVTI
# The whole screen tested about 580,000 compounds, of which about 6,100 (1.1%) were called active. Inconclusive results, whose numbers are uncertain, are shown with a selection of clear calls. The call rests on the fitted dose curve; in most records, active means well fitted inhibition curve with a large enough effect; inconclusive means small, poorly fitted or top-dose-only effect, or another doubt; inactive means no such curve, though single readings can be large or run the other way. Potencies beside an inconclusive call are fits to weak or partial responses and may not hold up.
# Target: Polyunsaturated fatty acid lipoxygenase ALOX12 (Homo sapiens) (UniProt P18054)
# Assay: Primary qHTS assay for inhibitors of human arachidonate 12S-lipoxygenase (ALOX12): Round 2
# Conditions: purified 12hLO, xylenol orange hydroperoxide absorbance; activity change, negative = inhibition: at 108 µM (top of the series) unless noted
# Method in brief: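 Purified human 12hLO (150 nM final) in 25 mM Hepes, 0.01% Triton X-100, pH 7.0 was preincubated 15 min at room temperature with compound. Then 40 uM arachidonic acid was added, 30 min. Hydroperoxide was read by Fe-XO absorbance ratio 573/405 nm.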
# On the % scale 0 is the no-effect control and ±100 the full control effect; potency means the concentration at half of the fitted maximal effect.
SMILES,Potency,"activity change, negative = inhibition"
O=C(O)CCC(=O)CCC(=O)c1cccs1,"inconclusive: 31.6 µM [inhibitor, single point]",–
Cc1nc2ccccc2c2oc(C(=O)NCCCN3CCCC(C)C3)cc12 (stereo not drawn),"inconclusive: 1.26 µM [inhibitor, full curve, poor fit]",–
Nn1c(SCc2cn3cc(Cl)ccc3n2)nnc1-c1ccncc1,"inconclusive: 22.4 µM [inhibitor, partial curve, poor fit]",–
Cc1ccc(S(=O)(=O)N(C)/N=C/C=C/c2ccccc2)cc1,–,inactive: -10.4%
Cc1ccc(NC(=O)Cn2c(CCC(=O)O)ccc2-c2cccs2)cc1,"inconclusive: 35.5 µM [inhibitor, partial curve]",–
Cc1nc(NCc2ccco2)c2c(C)c(C)sc2n1,"inconclusive: 1.78 µM [inhibitor, full curve]",–
Cc1ccc(S(=O)(=O)NNC(=S)Nc2cccc(F)c2)cc1,"inconclusive: 3.55 µM [inhibitor, full curve, poor fit]",–
CC(=O)C1=C(O)C(=O)N(Cc2ccco2)C1c1ccc2c(c1)OCO2 (stereo not drawn),"inconclusive: 2.51 µM [inhibitor, full curve, poor fit]",–
O=C(Cc1cccc(Cl)c1)N1CCC(Oc2ncccc2C(=O)N2CCCCC2)C1 (stereo not drawn),–,inactive: 33%
CCc1ccc(NC(=S)/N=C(\N)Nc2nc(C)c3cc(CC)ccc3n2)cc1,active: 35.5 µM,–
COc1cc(-c2nc3cnccn3c2NC(C)(C)CC(C)(C)C)ccc1O,"inconclusive: 44.7 µM [inhibitor, single point]",–
CCc1ccc(-c2nc(C(=O)N3CCN(C(C#N)c4ccc(F)cc4)CC3)cs2)cc1 (stereo not drawn),"inconclusive: 100 µM [inhibitor, single point]",–
CCc1ccccc1S(=O)(=O)Nc1cccn2nc(C(C)C)nc12,"inconclusive: 8.91 µM [inhibitor, full curve]",–
CN(C)CC(=O)N1CCC(c2ccc(NC(=O)c3ncc(C#N)[nH]3)c(C3=CCCCC3)c2)CC1,–,inactive: 26.2% [at 57.4 µM]
CN(CCc1ccccn1)c1ccc(-c2nc(COc3ccccc3)no2)cn1,–,inactive: -22.1%
Cc1n[nH]c(=S)n1/N=C/c1ccc(OCc2ccc(Cl)cc2)cc1,"inconclusive: 5.62 µM [inhibitor, full curve, poor fit]",–
N#Cc1ccc(-c2ccc(OCC(=O)c3ccc4c(c3)OCCO4)cc2)cc1,–,inactive: 9.39%
O=C(O)CCc1ccc(-c2cccs2)n1-c1ccc(C(=O)O)cc1,"inconclusive: 11.2 µM [inhibitor, full curve]",–
Cc1cc2nc(CCN3CCOCC3)n(S(=O)(=O)c3ccc(C(C)(C)C)cc3)c2cc1C,–,inactive: -2.03%
CSc1ccc(/C=N/Nc2nc(C)cc(C)n2)cc1,–,inactive: 1.64%
NC(=S)n1[nH]c(-c2ccc([N+](=O)[O-])cc2)c(N=Nc2cccc(Cl)c2)c1=O,"inconclusive: 50.1 µM [inhibitor, partial curve, poor fit]",–
Cc1ccnc(NC(c2ccccc2F)c2ccc3cccnc3c2O)c1 (stereo not drawn),active: 22.4 µM,–

SMILES,Potency,"activity change, negative = inhibition"
O=C(CSc1ncnc2sc3c(c12)CCC3)NCC1CCCO1 (stereo not drawn),"inconclusive: 44.7 µM [inhibitor, partial curve, poor fit]",–
COCC(=O)N[C@@H]1CN(Cc2ccc(C#N)cc2)C[C@H]1CO,–,inactive: 21.1%
CSc1ccc(S(=O)(=O)NC2CCCCCC2)cc1,"inconclusive: 56.2 µM [inhibitor, partial curve, poor fit]",–
CCOC(=O)c1cc(-c2ccccc2C)nn1Cc1cc(C)no1,"inconclusive: 44.7 µM [inhibitor, partial curve, poor fit]",–
COc1ccc(NC(=O)c2cc(C(C)C)on2)cc1OC,–,inactive: 10.8%
CCNC(=O)NC(=O)CN(Cc1ccc(C)cc1)C1CC1,"inconclusive: 112 µM [inhibitor, partial curve, poor fit]",–
COc1ccc(Oc2coc3cc(OC(C)C(=O)OC4CCCCC4)ccc3c2=O)cc1 (stereo not drawn),"inconclusive: 0.0794 µM [inhibitor, full curve, poor fit]",–
COc1ccc(N(CC(=O)N2CCCCCC2)S(=O)(=O)c2ccccc2[N+](=O)[O-])c(OC)c1,"inconclusive: 44.7 µM [inhibitor, partial curve, poor fit]",–
OC(CNCCNc1ncccc1C(F)(F)F)Cn1ccc2ccccc21 (stereo not drawn),–,inactive: -17.2%
COC(=O)c1ccc(-c2ccc(/C=C(/C#N)c3nc4ccc(C)cc4[nH]3)o2)c(C)c1,"inconclusive: 112 µM [inhibitor, single point]",–
Cc1ccc(C(=O)/C=C/c2cccc3ccccc23)o1,active: 15.8 µM,–
O=S(=O)(NCCO)c1ccc(Oc2ccc(S(=O)(=O)NCCO)cc2)cc1,–,inactive: -6.43%
OC(CNCc1c(OCc2ccccc2)ccc2ccccc12)c1ccccc1 (stereo not drawn),"inconclusive: 89.1 µM [inhibitor, single point]",–
COc1cccc(OC)c1C(=O)N1CCN(Cc2cc(=O)oc3cc(C)ccc23)CC1,"inconclusive: 10 µM [inhibitor, full curve]",–
Cc1ccc(N2CCn3c2nc2c3c(=O)n(CCc3ccccc3)c(=O)n2C)cc1C,–,inconclusive: -30.4% [inhibitor]
CCn1nc(C(=O)NCc2cc3ccccc3[nH]2)c2ccccc2c1=O,"inconclusive: 50.1 µM [inhibitor, partial curve, poor fit]",–
CCCCn1c(N)c(N(CCOC)C(=O)CSCc2ccc(C)cc2)c(=O)[nH]c1=O,"inconclusive: 44.7 µM [inhibitor, partial curve, poor fit]",–
COC(=O)C(NC(=O)c1ccc(F)cc1)(Nc1ncc(S(=O)(=O)c2ccc([N+](=O)[O-])cc2)s1)C(F)(F)F (stereo not drawn),"inconclusive: 50.1 µM [inhibitor, partial curve, poor fit]",–
Cc1ccn2cc(CSc3ccccc3N)nc2c1,–,inactive: 1.36%
COc1ccc(CNC(=O)N2CCCCC2c2nc(-c3ccncc3)n[nH]2)cc1 (stereo not drawn),"inconclusive: 8.91 µM [inhibitor, full curve]",–
O=C(CCC1CCN(C(=O)c2ccccc2F)CC1)NCc1ccco1,"inconclusive: 39.8 µM [inhibitor, single point]",–

# Filtered by structure, those above containing a carbonyl joined to an NH by a bond outside any ring.
SMILES,Potency,"activity change, negative = inhibition"
Cc1nc2ccccc2c2oc(C(=O)NCCCN3CCCC(C)C3)cc12 (stereo not drawn),"inconclusive: 1.26 µM [inhibitor, full curve, poor fit]",–
Cc1ccc(NC(=O)Cn2c(CCC(=O)O)ccc2-c2cccs2)cc1,"inconclusive: 35.5 µM [inhibitor, partial curve]",–
CN(C)CC(=O)N1CCC(c2ccc(NC(=O)c3ncc(C#N)[nH]3)c(C3=CCCCC3)c2)CC1,–,inactive: 26.2% [at 57.4 µM]
O=C(CSc1ncnc2sc3c(c12)CCC3)NCC1CCCO1 (stereo not drawn),"inconclusive: 44.7 µM [inhibitor, partial curve, poor fit]",–
COCC(=O)N[C@@H]1CN(Cc2ccc(C#N)cc2)C[C@H]1CO,–,inactive: 21.1%
COc1ccc(NC(=O)c2cc(C(C)C)on2)cc1OC,–,inactive: 10.8%
CCNC(=O)NC(=O)CN(Cc1ccc(C)cc1)C1CC1,"inconclusive: 112 µM [inhibitor, partial curve, poor fit]",–
CCn1nc(C(=O)NCc2cc3ccccc3[nH]2)c2ccccc2c1=O,"inconclusive: 50.1 µM [inhibitor, partial curve, poor fit]",–
COC(=O)C(NC(=O)c1ccc(F)cc1)(Nc1ncc(S(=O)(=O)c2ccc([N+](=O)[O-])cc2)s1)C(F)(F)F (stereo not drawn),"inconclusive: 50.1 µM [inhibitor, partial curve, poor fit]",–
COc1ccc(CNC(=O)N2CCCCC2c2nc(-c3ccncc3)n[nH]2)cc1 (stereo not drawn),"inconclusive: 8.91 µM [inhibitor, full curve]",–
O=C(CCC1CCN(C(=O)c2ccccc2F)CC1)NCc1ccco1,"inconclusive: 39.8 µM [inhibitor, single point]",–
